Several values for one entry are separate records, joined by “and”; a condition that tells them apart may be missing. Equal values may be shown once. Where a name gives a salt, the structure may show the parent alone. This is one part of the list. Single values are uncertain here, since repeats match poorly.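 Human kidney-derived cells stably carry a construct in which eight TEAD-binding elements drive luciferase, measured by luminescence in a drug-repurposing library screen. A hit is any compound whose signal exceeds the plate mean by more than five robust Z scores.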

This test has as its system HEK293A TEAD-LUC reporter. Briefly: TEAD-luciferase reporter activity (YAP activation), robust Z score vs plate; higher = stronger YAP/TEAD activation. Particulars: 24 h. For orientation: A reporter such as luciferase makes a cellular process visible.

On to `COc1cc(C(C)C)c2c(c1)S(=O)(=O)N(COc1cc(=O)n3cccc(OCCN4CCCCC4)c3n1)C2=O`, for which the TEAD-luciferase reporter activity by setting is: (compound concentration: 200 nM) inactive: 0.979; (compound concentration: 2 uM) inactive: -1.15; (compound concentration: 10 uM) inactive: 3.78.

Consider `CO/N=C(\C(=O)N[C@@H]1C(=O)N2C(C(=O)O)=C(/C=C\c3scnc3C)CS[C@H]12)c1csc(N)n1`, for which the TEAD-luciferase reporter activity was inactive: -0.448 (compound concentration: 200 nM), inactive: -1.66 (compound concentration: 2 uM) and inactive: -0.439 (compound concentration: 10 uM).

As to `CC(=O)N1Cc2ccccc2CC2(CCCN2CCc2ccccc2)C1` (centres undefined), the TEAD-luciferase reporter activity runs as follows: (compound concentration: 200 nM) inactive: 0.756; (compound concentration: 10 uM) inactive: 3.36.

For the compound `Cc1cc2c(N)c3c(nc2cc1F)CCCC3`, the TEAD-luciferase reporter activity is inactive: -2.06 (compound concentration: 200 nM), inactive: 2.6 (compound concentration: 2 uM) and inactive: -1.27 (compound concentration: 10 uM).

With `COc1ccc(C(=O)c2sc(Nc3ccccc3)nc2N)cc1OC`, the TEAD-luciferase reporter activity is, setting by setting: (compound concentration: 200 nM) inactive: -0.468; (compound concentration: 2 uM) inactive: -1.71; (compound concentration: 10 uM) inactive: -1.33.

Regarding `O=S(=O)([O-])c1cc(O)c(S(=O)(=O)[O-])cc1O` [diethylamine persilate], the TEAD-luciferase reporter activity was inactive: -0.266 (compound concentration: 200 nM), inactive: 0.512 (compound concentration: 2 uM) and inactive: -1.06 (compound concentration: 10 uM).

On to `CCC(=O)NC[C@@H]1C[C@H]1c1cccc2c1CCO2` [Tasimelteon], for which the TEAD-luciferase reporter activity (compound concentration: 200 nM) was inactive: 2.9, the TEAD-luciferase reporter activity (compound concentration: 2 uM) is inactive: 1.77 and the TEAD-luciferase reporter activity (compound concentration: 10 uM) is inactive: -0.915.

Regarding `C=C1C[C@H]2C=Nc3cc(OCCCOc4cc5c(cc4OC)C(=O)N4CC(=C)C[C@H]4C=N5)c(OC)cc3C(=O)N2C1`, the TEAD-luciferase reporter activity is inactive: -0.771 (compound concentration: 200 nM); inactive: -1.29 and inactive: -1.47 (compound concentration: 2 uM); inactive: -1.1 (compound concentration: 10 uM).

For the compound `CCOC(=O)NNc1ccc(N(CC)CC(C)O)nn1` (centres undefined) [cadralazine], the TEAD-luciferase reporter activity is, setting by setting: (compound concentration: 200 nM) inactive: 3; (compound concentration: 2 uM) inactive: -0.998; (compound concentration: 10 uM) inactive: -0.336.

For `COc1cc2c(c(OC)c1OC)-c1c(cc3c(c1OC)OCO3)C[C@H](C)[C@@](C)(O)C2` [Gomisin A], the TEAD-luciferase reporter activity (compound concentration: 200 nM) was inactive: 2.08, the TEAD-luciferase reporter activity (compound concentration: 2 uM) was inactive: -0.334 and the TEAD-luciferase reporter activity (compound concentration: 10 uM) was inactive: -2.13.

For `COc1cccc2c1nc(C(F)F)n2-c1nc(-c2ccc(NS(=O)(=O)CCN(C)C)cc2)nc(N2CCOCC2)n1`, the TEAD-luciferase reporter activity is inactive: 0.645 (compound concentration: 200 nM), inactive: -1.64 (compound concentration: 2 uM) and inactive: 1 (compound concentration: 10 uM).

As for `CC(=O)Oc1c(C)c(C)c2c(c1C)CC(CC(=O)O)O2` (centres undefined) [raxofelast], the TEAD-luciferase reporter activity (compound concentration: 200 nM) is inactive: -0.373, the TEAD-luciferase reporter activity (compound concentration: 2 uM) was inactive: 0.939 and the TEAD-luciferase reporter activity (compound concentration: 10 uM) was inactive: -0.788.

Regarding `CCCCOc1nc(N)c2c(n1)N(Cc1cccc(CN3CCCC3)c1)CC(=O)N2` [Vesatolimod], the TEAD-luciferase reporter activity is inactive: -0.139 (compound concentration: 200 nM), inactive: 0.074 (compound concentration: 2 uM) and inactive: 0.171 (compound concentration: 10 uM).

As to `O=C(OCc1ccccc1)c1cccnc1`, the TEAD-luciferase reporter activity by setting is: (compound concentration: 200 nM) inactive: -0.00818; (compound concentration: 2 uM) inactive: -0.169; (compound concentration: 10 uM) inactive: 0.341.

With `CCCCCCCN(Cc1ccc(CCC(C)C)cc1)C(=O)Nc1c(C)cc(Cl)cc1C`, the TEAD-luciferase reporter activity (compound concentration: 200 nM) is inactive: -0.765, the TEAD-luciferase reporter activity (compound concentration: 2 uM) is inactive: -0.344 and the TEAD-luciferase reporter activity (compound concentration: 10 uM) was inactive: 0.503.

With `C=CCc1c(OC(=O)N2CCC(N3CCCCC3)CC2)ccc2nc3c(cc12)Cn1c-3cc2c(c1=O)COC(=O)[C@]2(O)CC` [Simmitecan hydrochloride], the TEAD-luciferase reporter activity by setting is: (compound concentration: 200 nM) inactive: 0.594; (compound concentration: 2 uM) inactive: 1.27; (compound concentration: 10 uM) inactive: 0.881.

Consider `NC(=O)NO`, for which the TEAD-luciferase reporter activity is, setting by setting: (compound concentration: 200 nM) inactive: -0.367; (compound concentration: 10 uM) inactive: -0.232.

For the compound `NC(=O)NO` [Hydroxyurea], for the setting “compound concentration: 2 uM”, the TEAD-luciferase reporter activity is inactive: 0.363.

Take `Nc1nc(O)c(Br)c(-c2ccccc2)n1` [bropirimine]: the TEAD-luciferase reporter activity reads like this: (compound concentration: 200 nM) inactive: -1.47; (compound concentration: 2 uM) inactive: 0.321; (compound concentration: 10 uM) inactive: -0.389.

As for `C=CC(=O)N1CCC[C@H](n2c(=O)n(-c3ccc(Oc4ccccc4)cc3)c3c(N)ncnc32)C1` [analog of ONO-4059], where the note is “compound concentration: 2 uM”, the TEAD-luciferase reporter activity was inactive: -1.34.

Turning to `C=CC(=O)N1CCC[C@H](n2c(=O)n(-c3ccc(Oc4ccccc4)cc3)c3c(N)ncnc32)C1`, the TEAD-luciferase reporter activity is inactive: -0.0963 (compound concentration: 200 nM) and inactive: 0.862 (compound concentration: 10 uM).

In the case of `Cc1cccc(C)c1NC(=O)C1CCCCN1C` (centres undefined), the TEAD-luciferase reporter activity reads like this: (compound concentration: 200 nM) inactive: -1.07; (compound concentration: 10 uM) inactive: -0.82.

Consider `Cc1cccc(C)c1NC(=O)C1CCCCN1C` (centres undefined) [mepivacaine, Biochronomer], for which the TEAD-luciferase reporter activity (compound concentration: 2 uM) was inactive: -1.36.

Consider `CC(C)(CCCOc1ccc(OCCCC(C)(C)C(=O)O)c(-c2ccccc2)c1)C(=O)O`, for which the TEAD-luciferase reporter activity runs as follows: (compound concentration: 200 nM) inactive: -1.17; (compound concentration: 2 uM) inactive: -0.5; (compound concentration: 10 uM) inactive: -1.46.

In the case of `O=C(O)c1ccccc1SCCCN1C(=O)c2cccc3cccc(c23)C1=O`, the TEAD-luciferase reporter activity was inactive: 0.918 (compound concentration: 200 nM), inactive: -1.53 (compound concentration: 2 uM) and inactive: 0.237 (compound concentration: 10 uM).

On to `FC(F)(F)c1cccc(N2CCN(CCSc3nnc4ccccn34)CC2)c1`, for which the TEAD-luciferase reporter activity was inactive: -1 (compound concentration: 200 nM), inactive: 0.598 (compound concentration: 2 uM) and inactive: -0.251 (compound concentration: 10 uM).

With `Cc1ccc(C(=O)Nc2ccc(CN3CCN(C)CC3)c(C(F)(F)F)c2)cc1C#Cc1cnc2cccnn12` [Ponatinib], the TEAD-luciferase reporter activity by setting is: (compound concentration: 200 nM) inactive: 2.43; (compound concentration: 2 uM) inactive: -3.9; (compound concentration: 10 uM) inactive: -2.97.

`CCCCCc1ccc(C)cc1O`: the TEAD-luciferase reporter activity was inactive: -0.713 (compound concentration: 200 nM), inactive: -1.45 (compound concentration: 2 uM) and inactive: -1.09 (compound concentration: 10 uM).

The values are drawn from the supplement of paper PMC10735217.
